Laboratory results reported in PubChem BioAssay AID2551 (National Center for Advancing Translational Sciences (NCATS), 2010).
Among all 310,000 compounds or so, about 17,000 (5.5%) were called active. Inconclusive results, whose numbers are uncertain, are shown with a selection of clear calls. Calls come from the whole dose curve; as a rule, active = well fitted inhibition curve with a large enough effect; inconclusive = small, poorly fitted or top-dose-only effect, or effect the other way; inactive = no such curve, though single readings can be large or run the other way. Where the call is inconclusive, the potency comes from a doubtful curve fit.

Chains of the proteins cited; added tags and fusions are not shown. Lines headed by an entry give the natural chain unless they say otherwise; changes in a name come on top.
UniProt P51450: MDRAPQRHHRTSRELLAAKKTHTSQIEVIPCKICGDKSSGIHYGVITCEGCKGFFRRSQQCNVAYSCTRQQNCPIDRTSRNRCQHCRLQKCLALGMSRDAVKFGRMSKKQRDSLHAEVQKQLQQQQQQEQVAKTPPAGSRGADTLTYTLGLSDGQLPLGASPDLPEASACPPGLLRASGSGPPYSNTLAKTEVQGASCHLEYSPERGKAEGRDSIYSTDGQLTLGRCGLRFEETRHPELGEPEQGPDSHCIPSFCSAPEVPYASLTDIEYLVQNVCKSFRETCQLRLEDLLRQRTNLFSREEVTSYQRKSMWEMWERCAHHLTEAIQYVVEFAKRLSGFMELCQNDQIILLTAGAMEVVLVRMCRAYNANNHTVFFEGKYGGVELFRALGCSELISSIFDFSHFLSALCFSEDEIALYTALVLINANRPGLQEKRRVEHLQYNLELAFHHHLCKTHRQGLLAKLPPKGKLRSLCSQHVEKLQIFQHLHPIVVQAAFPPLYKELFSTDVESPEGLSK

target: Nuclear receptor ROR-gamma (Mus musculus) (UniProt P51450); experiment: qHTS for inhibitors of ROR gamma transcriptional activity; conditions: Drosophila S2 Gal4-RORgamma UAS-luciferase reporter, 20 h; activity change, negative = inhibition: at 53.6 µM (top of the series); note: nearly all actives have a fitted effect of over 60% in size
How it was run: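 ROR gamma transcriptional activity was tracked as Gal4-UAS luciferase output in stably transfected Drosophila Schneider cells, with compound added 1 hr before 700 uM copper sulfate induction and a 20 hr ambient-temperature incubation.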
% is set by controls: 0 for no effect and ±100 for the full control effect; potency is the fitted concentration of half-maximal effect.

Activity change, negative = inhibition, inactive:
O=C(Nc1ccncc1)c1sc2ccccc2c1Cl -20%
O=C(Nc1c2c(nn1-c1ccc(Cl)cc1)CS(=O)(=O)C2)c1ccc2c(c1)OCO2 26.1%
COc1ccc(NC(=O)COC(=O)Cn2nnc3ccccc32)cc1 3.46%
CN(Cc1c(C(=O)N/N=C/c2ccccc2)nnn1-c1nonc1N)c1ccccc1 -32.6%
CN(C)c1ncnc2ccc(-c3cccc(C#N)c3)cc12 -0.151%
CCOc1ccc(CCNC(=O)Cc2ccc(NC(=O)C3=C(C)OCCS3)cc2)cc1 -20.7%
CCOC(=O)c1ccc(NC(=S)N2CCC(O)CC2)cc1 -6.81%
N#CCCN1CCN(Cn2c3ccccc3c3ccccc32)CC1 26%
CNc1ccccc1C(C)(C)c1cc(-c2cc(C)cc(C)c2)no1 -5.05%
CC=CC1=C(C(=O)O)N2C(=O)[C@H](NC(=O)[C@H](N)c3ccc(O)cc3)[C@@H]2SC1 14.7%
Cc1cccn2c(=O)c3cc(C(=O)N4CCOCC4)n(C)c3nc12 -10.9%
c1ccc(-c2nnc(CN3CCCc4ccccc43)o2)cc1 -32.2%

Potency, active:
CSc1cccc(NC(=S)N(CCC(C)C)C2CCN(C(C)C)CC2)c1 12.6 µM
C/C(=N\NC(=O)c1ccc(O)cc1)c1cc2ccccc2o1 6.31 µM
CCCn1c(C)cc(C(=O)COC(=O)c2ccc[nH]c2=O)c1C 3.98 µM
COc1ccc(N(C)S(=O)(=O)c2cccc(C(=O)Nc3nc4ccccc4[nH]3)c2)cc1 3.98 µM
Cc1ccsc1C(=O)N1CCC(CO)(Cc2ccccc2)CC1 10 µM
S=c1[nH]nc(COc2ccccc2)n1C1CCCCC1 1.78 µM
CC(=O)n1cc(/C=N/NC(N)=S)c2ccccc21 4.47 µM

Potency, inconclusive:
CCCC(=O)N1CCN(c2nc3ccc(Br)cc3s2)CC1 10 µM [activator, partial curve]
COc1ccc(-c2cn3ccc4ccccc4c3n2)cc1 35.5 µM [inhibitor, single point]
CCOC(=O)CCc1c(C)c2ccc(OC(C)C(=O)OCC)c(C)c2oc1=O (stereo unspecified) 20 µM [inhibitor, single point]
COc1ccc(C(=O)NC(=S)NNC(=O)c2ccc(NC(=O)C(C)C)cc2)cc1 14.1 µM [inhibitor, single point]
CC(=O)Nc1ccc(-n2cc(-c3ccccc3)[nH]c2=S)cc1 12.6 µM [inhibitor, single point]
Cc1ccc(S(=O)(=O)Nc2ccc3c(c2)ncn3C(C)(C)C)cc1 20 µM [activator, single point]
O=C(N/N=C1\CC(c2ccccc2)Oc2ccccc21)c1ccccn1 (stereo unspecified) 1.78 µM [inhibitor, full curve, poor fit]
O=c1c2ccccc2sn1-c1cc(S(=O)(=O)N2CCOCC2)ccc1N1CCOCC1 3.98 µM [inhibitor, single point]
CCOC(=O)/C=C/c1cnn(-c2ccccc2)c1 2 µM [inhibitor, partial curve, poor fit]
Cc1ccc2nc3nc4ccc[nH]c4cc3c2c1 3.98 µM [activator, single point]
CCn1c2ccccc2c2cc(NC(=O)COc3ccccc3OC)ccc21 22.4 µM [activator, single point]
Cc1ccc(-c2csc3nc4c5ccccc5c(NCCCN(C)C)nn4c(=O)c23)cc1 35.5 µM [inhibitor, single point]
O=C(Nc1nc2ccccc2[nH]1)Nc1ccccc1F 10 µM [inhibitor, single point]
COc1ccc(OC(=O)c2cn(C)nc2C(F)(F)F)cc1 11.2 µM [activator, partial curve, poor fit]
CC(C)CCNc1nc2c(c(=O)n(Cc3cccc(F)c3)c(=O)n2C)n1C 1.41 µM [activator, full curve, poor fit]
CCOC(=O)c1c(N)sc2c1CCC1C(=O)N(C3CCCCC3)C(=O)C21 (stereo unspecified) 35.5 µM [activator, single point]
CS(=O)(=O)N1CCC2(CCN(c3cccc(-c4ccccc4)c3)CC2)CC1 3.55 µM [activator, partial curve]
CCOc1ccc(CNC(=O)C2Cc3cc(S(=O)(=O)N4CCCCC4)ccc3N2C(C)=O)cc1 (stereo unspecified) 12.6 µM [activator, single point]
CC(=O)c1ccc(N2CCN(C(=O)c3cc(C)on3)CC2)cc1 15.8 µM [activator, partial curve, poor fit]
Cc1coc(C)c1C(=O)CC1(O)C(=O)N(Cc2ccccc2)c2ccccc21 (stereo unspecified) 28.2 µM [inhibitor, single point]
O=C1NC(=O)/C(=C/c2ccccc2OCc2ccccc2)S1 20 µM [inhibitor, single point]
O=C(NC(=S)NNS(=O)(=O)c1ccc(Cl)cc1)c1cccnc1 10 µM [inhibitor, partial curve]
Cc1cccc(NC(=S)N(CCc2nc3cc(C)c(C)cc3[nH]2)Cc2cccnc2)c1 14.1 µM [inhibitor, single point]
Cn1c(=O)oc2cc(S(=O)(=O)N3CCCC(C(=O)NC4CCCc5ccccc54)C3)ccc21 (stereo unspecified) 35.5 µM [activator, single point]
O=C(NC(=S)Nc1ccc(Cl)c(C(=O)O)c1)c1cccc(COc2ccccc2)c1 11.2 µM [activator, partial curve, poor fit]
O=C(CN1CCC(NC(=O)Nc2ccccc2)CC1)Nc1ccc([N+](=O)[O-])cc1 7.08 µM [activator, partial curve, poor fit]
COc1ccc(-c2nc(CS(=O)CC(=O)NCc3ccccn3)c(C)o2)cc1 (stereo unspecified) 0.398 µM [inhibitor, full curve]

Three structures out of the list, arranged by molecular weight, smallest number first:
Potency, inconclusive:
O=C1NC(=O)/C(=C/c2ccccc2OCc2ccccc2)S1 20 µM [inhibitor, single point]
CCn1c2ccccc2c2cc(NC(=O)COc3ccccc3OC)ccc21 22.4 µM [activator, single point]
CCOC(=O)CCc1c(C)c2ccc(OC(C)C(=O)OCC)c(C)c2oc1=O (stereo unspecified) 20 µM [inhibitor, single point]
